Structures can show the parent of a compound that is named as a salt. This is one part of the list. Hit calls seldom repeat between salt and free forms of one compound.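 In K562 cells expressing nanoluciferase-fused kinases, luminescence was recorded at 4 h intervals between 2 and 18 h, normalized as percent of control with DMSO at 100% and a positive control at 0%. A significant (2 sigma) signal drop marks a time point as decreased. The authors' rule for a hit is not shown and takes in more than the number of time points.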
Assays:
Assay in all cases: kinase-Nluc reporter destabilization hit call (1 = scored as downregulated) (binary); higher = compound decreases kinase abundance
Conditions in all cases: K562; 2-18 h
[1] = target: PDPK1 (UniProt O15530)
[2] = target: PIK4CA (UniProt P42356)
[3] = target: PIK4CB (UniProt Q9UBF8)
[4] = target: PLK1 (UniProt P53350)
[5] = target: PRKAA1 (UniProt Q13131)
[6] = target: PRKCA (UniProt P17252)
[7] = target: PTK2 (UniProt Q05397)
[8] = target: PTK2B (UniProt Q14289)
[9] = target: RAF1 (UniProt P04049)
[10] = target: RAF1_S257L (clone: RAF1_mut) (UniProt P04049)
[11] = target: RET (UniProt P07949)
[12] = target: RET_M918T (clone: RET_mut) (UniProt P07949)
[13] = target: RIOK1 (UniProt Q9BRS2)
[14] = target: RIPK1 (UniProt Q13546)
[15] = target: RIPK2 (UniProt O43353)
[16] = target: ROR2 (UniProt Q01974)
[17] = target: RPS6KA1 (UniProt Q15418)
[18] = target: SPHK1 (UniProt Q9NYA1)
[19] = target: SRC (UniProt P12931)
[20] = target: STK24 (UniProt Q9Y6E0)

Sequences of proteins named here, by UniProt entry; tags and fusion partners are left off. A change or cut given only in a name is not applied to a line headed by its entry.
UniProt P53350, whole entry: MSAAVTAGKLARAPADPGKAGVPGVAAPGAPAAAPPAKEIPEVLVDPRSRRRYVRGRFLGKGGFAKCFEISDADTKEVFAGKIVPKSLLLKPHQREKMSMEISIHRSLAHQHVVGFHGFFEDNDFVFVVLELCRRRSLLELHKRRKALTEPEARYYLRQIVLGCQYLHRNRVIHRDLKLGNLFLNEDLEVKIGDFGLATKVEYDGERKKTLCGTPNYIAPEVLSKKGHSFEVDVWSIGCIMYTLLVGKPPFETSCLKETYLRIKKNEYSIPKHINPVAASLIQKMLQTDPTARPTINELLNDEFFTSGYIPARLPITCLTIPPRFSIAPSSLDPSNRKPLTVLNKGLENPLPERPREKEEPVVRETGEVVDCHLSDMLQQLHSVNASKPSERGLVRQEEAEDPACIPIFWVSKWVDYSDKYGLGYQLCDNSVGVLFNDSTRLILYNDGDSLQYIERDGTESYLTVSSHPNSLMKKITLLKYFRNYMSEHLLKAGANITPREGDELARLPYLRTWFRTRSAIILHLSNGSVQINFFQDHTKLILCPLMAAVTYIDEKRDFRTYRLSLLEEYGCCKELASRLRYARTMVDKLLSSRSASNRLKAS
UniProt Q13131: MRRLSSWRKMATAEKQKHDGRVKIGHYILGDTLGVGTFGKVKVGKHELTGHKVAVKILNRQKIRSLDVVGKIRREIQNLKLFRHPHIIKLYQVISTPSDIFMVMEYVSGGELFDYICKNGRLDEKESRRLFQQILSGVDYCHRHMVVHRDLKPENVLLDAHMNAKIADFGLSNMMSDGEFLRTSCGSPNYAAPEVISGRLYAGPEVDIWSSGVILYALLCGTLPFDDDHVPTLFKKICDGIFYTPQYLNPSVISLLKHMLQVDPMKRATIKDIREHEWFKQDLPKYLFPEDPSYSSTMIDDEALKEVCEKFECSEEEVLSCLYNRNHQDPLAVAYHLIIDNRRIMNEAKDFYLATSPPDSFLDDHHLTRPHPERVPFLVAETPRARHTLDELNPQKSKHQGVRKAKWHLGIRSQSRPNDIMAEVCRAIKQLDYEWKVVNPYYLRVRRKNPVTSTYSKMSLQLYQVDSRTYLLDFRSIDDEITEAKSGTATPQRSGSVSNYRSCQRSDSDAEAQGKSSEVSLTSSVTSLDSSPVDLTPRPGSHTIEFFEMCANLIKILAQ
UniProt Q05397, whole entry, looked up: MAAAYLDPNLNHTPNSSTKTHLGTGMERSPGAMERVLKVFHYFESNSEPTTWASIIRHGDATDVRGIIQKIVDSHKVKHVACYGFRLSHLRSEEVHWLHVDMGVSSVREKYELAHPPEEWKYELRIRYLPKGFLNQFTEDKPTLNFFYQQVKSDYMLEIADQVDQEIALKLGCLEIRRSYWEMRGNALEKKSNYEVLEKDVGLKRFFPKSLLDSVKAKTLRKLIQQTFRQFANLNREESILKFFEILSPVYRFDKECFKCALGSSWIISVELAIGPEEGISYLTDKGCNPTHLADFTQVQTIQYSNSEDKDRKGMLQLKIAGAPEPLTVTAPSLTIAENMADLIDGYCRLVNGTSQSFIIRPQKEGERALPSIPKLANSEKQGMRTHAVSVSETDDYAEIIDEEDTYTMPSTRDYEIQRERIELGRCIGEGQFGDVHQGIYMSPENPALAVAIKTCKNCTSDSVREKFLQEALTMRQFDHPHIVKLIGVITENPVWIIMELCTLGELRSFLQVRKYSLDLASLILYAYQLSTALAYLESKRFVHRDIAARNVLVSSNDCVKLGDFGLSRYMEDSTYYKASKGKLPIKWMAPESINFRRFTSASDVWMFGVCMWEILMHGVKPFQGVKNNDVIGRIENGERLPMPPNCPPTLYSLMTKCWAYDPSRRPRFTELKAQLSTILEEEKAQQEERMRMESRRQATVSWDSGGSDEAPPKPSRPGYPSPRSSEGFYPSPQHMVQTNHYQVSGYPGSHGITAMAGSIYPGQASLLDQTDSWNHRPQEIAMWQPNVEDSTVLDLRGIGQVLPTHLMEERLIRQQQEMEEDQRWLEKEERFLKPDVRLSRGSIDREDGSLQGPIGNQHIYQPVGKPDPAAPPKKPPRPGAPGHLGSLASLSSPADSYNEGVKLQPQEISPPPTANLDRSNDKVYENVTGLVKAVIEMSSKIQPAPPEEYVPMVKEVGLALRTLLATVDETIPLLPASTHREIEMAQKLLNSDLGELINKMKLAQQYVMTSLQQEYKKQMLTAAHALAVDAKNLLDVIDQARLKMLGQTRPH
UniProt Q14289, whole entry, looked up: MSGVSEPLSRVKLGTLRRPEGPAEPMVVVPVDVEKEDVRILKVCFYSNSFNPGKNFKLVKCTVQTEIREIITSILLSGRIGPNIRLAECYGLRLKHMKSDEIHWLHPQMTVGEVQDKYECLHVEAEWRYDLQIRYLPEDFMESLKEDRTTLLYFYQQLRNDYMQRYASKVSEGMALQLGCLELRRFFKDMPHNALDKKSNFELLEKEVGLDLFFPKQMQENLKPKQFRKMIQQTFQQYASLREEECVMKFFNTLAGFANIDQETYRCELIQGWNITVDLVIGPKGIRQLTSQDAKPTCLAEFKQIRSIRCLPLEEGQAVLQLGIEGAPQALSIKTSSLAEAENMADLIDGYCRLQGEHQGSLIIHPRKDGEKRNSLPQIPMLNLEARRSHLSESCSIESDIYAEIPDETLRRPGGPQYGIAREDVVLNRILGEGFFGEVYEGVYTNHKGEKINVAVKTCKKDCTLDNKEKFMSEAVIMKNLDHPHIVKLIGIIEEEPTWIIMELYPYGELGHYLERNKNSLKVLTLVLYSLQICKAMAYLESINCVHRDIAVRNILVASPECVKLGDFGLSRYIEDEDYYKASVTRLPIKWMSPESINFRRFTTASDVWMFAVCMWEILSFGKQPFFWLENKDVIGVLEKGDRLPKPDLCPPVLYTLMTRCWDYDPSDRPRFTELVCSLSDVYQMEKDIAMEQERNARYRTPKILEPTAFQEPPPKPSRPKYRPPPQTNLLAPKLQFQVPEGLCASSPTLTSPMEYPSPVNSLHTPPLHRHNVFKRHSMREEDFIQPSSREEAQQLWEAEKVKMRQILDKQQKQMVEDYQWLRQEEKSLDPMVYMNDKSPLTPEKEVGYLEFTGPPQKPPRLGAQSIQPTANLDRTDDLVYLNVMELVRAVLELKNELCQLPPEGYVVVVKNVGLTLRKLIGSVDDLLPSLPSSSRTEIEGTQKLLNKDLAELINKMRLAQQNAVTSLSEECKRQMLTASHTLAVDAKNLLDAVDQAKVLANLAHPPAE
UniProt P07949, whole entry, looked up: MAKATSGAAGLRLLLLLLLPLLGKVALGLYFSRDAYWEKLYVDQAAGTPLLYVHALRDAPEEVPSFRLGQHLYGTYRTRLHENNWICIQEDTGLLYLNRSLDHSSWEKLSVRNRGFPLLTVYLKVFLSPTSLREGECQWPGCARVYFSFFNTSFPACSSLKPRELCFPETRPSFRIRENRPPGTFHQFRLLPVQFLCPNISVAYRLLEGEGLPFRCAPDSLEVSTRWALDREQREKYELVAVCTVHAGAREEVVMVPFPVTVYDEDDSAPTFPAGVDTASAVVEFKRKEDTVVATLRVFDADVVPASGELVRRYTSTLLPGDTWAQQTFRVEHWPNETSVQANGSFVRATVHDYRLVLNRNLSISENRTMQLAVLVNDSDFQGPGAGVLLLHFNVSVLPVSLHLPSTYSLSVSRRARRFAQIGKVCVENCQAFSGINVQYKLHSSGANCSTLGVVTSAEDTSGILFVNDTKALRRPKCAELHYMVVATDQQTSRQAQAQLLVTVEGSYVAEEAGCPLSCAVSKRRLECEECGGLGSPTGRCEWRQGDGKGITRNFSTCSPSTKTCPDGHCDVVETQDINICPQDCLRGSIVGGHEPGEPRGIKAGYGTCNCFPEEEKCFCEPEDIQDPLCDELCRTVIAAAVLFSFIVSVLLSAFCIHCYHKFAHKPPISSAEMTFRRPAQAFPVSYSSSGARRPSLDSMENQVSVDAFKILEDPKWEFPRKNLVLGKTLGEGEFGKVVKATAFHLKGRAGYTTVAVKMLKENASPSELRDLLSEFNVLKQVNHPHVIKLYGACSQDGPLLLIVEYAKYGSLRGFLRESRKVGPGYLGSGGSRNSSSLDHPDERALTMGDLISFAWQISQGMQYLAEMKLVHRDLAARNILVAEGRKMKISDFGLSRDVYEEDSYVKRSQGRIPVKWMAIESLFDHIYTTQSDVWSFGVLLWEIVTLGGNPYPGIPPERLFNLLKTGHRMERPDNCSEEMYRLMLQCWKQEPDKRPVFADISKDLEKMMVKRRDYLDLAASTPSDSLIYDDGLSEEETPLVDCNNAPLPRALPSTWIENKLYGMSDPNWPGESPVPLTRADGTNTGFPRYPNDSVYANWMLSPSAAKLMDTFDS
UniProt P07949, whole entry M918T, looked up: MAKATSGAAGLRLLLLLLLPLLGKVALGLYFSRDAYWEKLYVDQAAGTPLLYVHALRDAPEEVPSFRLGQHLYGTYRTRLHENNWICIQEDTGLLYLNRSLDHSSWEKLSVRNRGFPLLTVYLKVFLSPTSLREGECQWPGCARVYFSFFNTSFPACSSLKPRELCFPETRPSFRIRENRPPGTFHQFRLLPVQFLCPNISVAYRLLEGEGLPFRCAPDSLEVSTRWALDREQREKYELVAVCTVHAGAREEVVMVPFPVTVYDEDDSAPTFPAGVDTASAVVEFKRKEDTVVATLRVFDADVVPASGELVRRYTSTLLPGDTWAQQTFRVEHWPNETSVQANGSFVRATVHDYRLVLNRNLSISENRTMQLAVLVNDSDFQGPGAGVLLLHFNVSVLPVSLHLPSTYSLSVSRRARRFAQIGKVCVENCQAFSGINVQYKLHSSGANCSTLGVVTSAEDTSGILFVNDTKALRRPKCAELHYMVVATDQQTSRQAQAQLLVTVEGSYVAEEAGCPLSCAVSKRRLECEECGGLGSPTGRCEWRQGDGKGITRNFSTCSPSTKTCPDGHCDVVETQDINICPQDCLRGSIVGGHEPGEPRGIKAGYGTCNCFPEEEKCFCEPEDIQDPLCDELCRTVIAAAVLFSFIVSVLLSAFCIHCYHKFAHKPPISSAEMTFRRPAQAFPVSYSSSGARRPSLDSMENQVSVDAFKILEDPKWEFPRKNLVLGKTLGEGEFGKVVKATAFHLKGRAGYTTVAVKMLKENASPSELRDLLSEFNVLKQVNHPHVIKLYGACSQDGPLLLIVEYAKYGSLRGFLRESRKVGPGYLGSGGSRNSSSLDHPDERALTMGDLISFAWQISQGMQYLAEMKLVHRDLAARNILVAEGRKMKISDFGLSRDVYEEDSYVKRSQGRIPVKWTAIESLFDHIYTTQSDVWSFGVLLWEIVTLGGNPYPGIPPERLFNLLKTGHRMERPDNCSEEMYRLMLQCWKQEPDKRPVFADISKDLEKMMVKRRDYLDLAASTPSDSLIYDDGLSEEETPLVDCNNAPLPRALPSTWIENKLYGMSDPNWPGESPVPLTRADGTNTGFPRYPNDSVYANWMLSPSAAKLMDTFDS
UniProt Q13546: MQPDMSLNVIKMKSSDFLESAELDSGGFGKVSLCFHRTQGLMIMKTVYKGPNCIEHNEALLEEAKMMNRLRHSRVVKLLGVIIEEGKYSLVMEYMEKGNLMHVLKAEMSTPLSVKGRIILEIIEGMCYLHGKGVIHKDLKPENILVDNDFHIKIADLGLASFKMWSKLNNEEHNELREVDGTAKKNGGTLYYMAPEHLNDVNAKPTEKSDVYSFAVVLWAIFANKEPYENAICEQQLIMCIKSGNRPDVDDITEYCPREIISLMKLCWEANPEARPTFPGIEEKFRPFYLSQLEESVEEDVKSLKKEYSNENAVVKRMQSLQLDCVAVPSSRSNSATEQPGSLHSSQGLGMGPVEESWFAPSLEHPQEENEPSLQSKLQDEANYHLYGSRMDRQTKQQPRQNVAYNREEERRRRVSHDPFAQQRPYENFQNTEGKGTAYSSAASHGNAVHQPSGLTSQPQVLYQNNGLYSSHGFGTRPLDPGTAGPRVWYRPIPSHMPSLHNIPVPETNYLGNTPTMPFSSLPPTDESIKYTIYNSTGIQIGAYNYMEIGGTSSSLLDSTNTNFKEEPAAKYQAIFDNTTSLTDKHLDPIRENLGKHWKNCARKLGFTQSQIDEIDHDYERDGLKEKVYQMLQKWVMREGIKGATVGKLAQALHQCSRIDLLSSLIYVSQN
UniProt Q9NYA1, whole entry: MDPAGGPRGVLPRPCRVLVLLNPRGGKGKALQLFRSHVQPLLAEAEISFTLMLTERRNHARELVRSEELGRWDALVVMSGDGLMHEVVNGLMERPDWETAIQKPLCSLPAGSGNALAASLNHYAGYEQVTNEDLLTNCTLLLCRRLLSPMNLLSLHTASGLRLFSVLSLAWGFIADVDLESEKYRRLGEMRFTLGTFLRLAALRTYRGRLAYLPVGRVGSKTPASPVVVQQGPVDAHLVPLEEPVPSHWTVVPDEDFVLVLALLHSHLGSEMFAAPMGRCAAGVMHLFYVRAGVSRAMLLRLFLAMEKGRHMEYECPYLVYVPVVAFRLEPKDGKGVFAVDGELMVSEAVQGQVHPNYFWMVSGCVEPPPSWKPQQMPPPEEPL

Row | SMILES | kinase-Nluc reporter destabilization hit call [1] | kinase-Nluc reporter destabilization hit call [2] | kinase-Nluc reporter destabilization hit call [3] | kinase-Nluc reporter destabilization hit call [4] | kinase-Nluc reporter destabilization hit call [5] | kinase-Nluc reporter destabilization hit call [6] | kinase-Nluc reporter destabilization hit call [7] | kinase-Nluc reporter destabilization hit call [8] | kinase-Nluc reporter destabilization hit call [9] | kinase-Nluc reporter destabilization hit call [10] | kinase-Nluc reporter destabilization hit call [11] | kinase-Nluc reporter destabilization hit call [12] | kinase-Nluc reporter destabilization hit call [13] | kinase-Nluc reporter destabilization hit call [14] | kinase-Nluc reporter destabilization hit call [15] | kinase-Nluc reporter destabilization hit call [16] | kinase-Nluc reporter destabilization hit call [17] | kinase-Nluc reporter destabilization hit call [18] | kinase-Nluc reporter destabilization hit call [19] | kinase-Nluc reporter destabilization hit call [20]
1 | O=C1NC(=O)C(c2cn(-c3ccccc3)nc2-c2ccc(F)cc2)N1 (stereo not given) (10 µM) | inactive: 0 | inactive: 0 | inactive: 0 | inactive: 0 | inactive: 0 | inactive: 0 | inactive: 0 | inactive: 0 | inactive: 0 | inactive: 0 | inactive: 0 | inactive: 0 | inactive: 0 | inactive: 0 | inactive: 0 | inactive: 0 | inactive: 0 | inactive: 0 | inactive: 0 | inactive: 0
2 | c1ccc(-c2nn3c(c2-c2ccnc4cc(OCCN5CCOCC5)ccc24)CCC3)nc1 (10 µM) | inactive: 0 | inactive: 0 | inactive: 0 | inactive: 0 | inactive: 0 | inactive: 0 | inactive: 0 | inactive: 0 | inactive: 0 | inactive: 0 | inactive: 0 | inactive: 0 | inactive: 0 | inactive: 0 | active: 1 | inactive: 0 | inactive: 0 | inactive: 0 | inactive: 0 | inactive: 0
3 | Cc1ccc(-c2ncn(-c3ccc(Nc4nccc(-c5cccc(N6CCOCC6)c5)n4)cc3)n2)cn1 (10 µM) | inactive: 0 | inactive: 0 | inactive: 0 | inactive: 0 | inactive: 0 | inactive: 0 | inactive: 0 | inactive: 0 | inactive: 0 | inactive: 0 | inactive: 0 | inactive: 0 | inactive: 0 | inactive: 0 | inactive: 0 | inactive: 0 | inactive: 0 | inactive: 0 | inactive: 0 | inactive: 0
4 | Cc1nc(NC(=O)NCCc2nnn(CCF)n2)sc1-c1ccc(S(C)(=O)=O)c(F)c1 (10 µM) | inactive: 0 | inactive: 0 | inactive: 0 | inactive: 0 | inactive: 0 | inactive: 0 | inactive: 0 | inactive: 0 | inactive: 0 | inactive: 0 | inactive: 0 | inactive: 0 | inactive: 0 | inactive: 0 | inactive: 0 | inactive: 0 | inactive: 0 | inactive: 0 | inactive: 0 | inactive: 0
5 | CCCC(=O)Nc1nc2c(ncn2[C@@H]2O[C@@H]3COP(=O)(O)O[C@H]3[C@H]2OC(=O)CCC)c(=O)[nH]1 [Dibutyryl-cGMP (sodium)] (10 µM) | inactive: 0 | inactive: 0 | inactive: 0 | inactive: 0 | inactive: 0 | inactive: 0 | inactive: 0 | inactive: 0 | inactive: 0 | inactive: 0 | inactive: 0 | inactive: 0 | inactive: 0 | inactive: 0 | inactive: 0 | inactive: 0 | inactive: 0 | inactive: 0 | inactive: 0 | inactive: 0
6 | NCCCCCCNS(=O)(=O)c1cccc2c(Cl)cccc12 [W-7 (hydrochloride)] (10 µM) | inactive: 0 | inactive: 0 | inactive: 0 | inactive: 0 | inactive: 0 | inactive: 0 | inactive: 0 | inactive: 0 | inactive: 0 | inactive: 0 | inactive: 0 | inactive: 0 | inactive: 0 | inactive: 0 | inactive: 0 | inactive: 0 | inactive: 0 | inactive: 0 | inactive: 0 | inactive: 0
7 | Cc1cc(Nc2nc(N[C@@H](C)c3ncc(F)cn3)ncc2Cl)[nH]n1 (10 µM) | inactive: 0 | inactive: 0 | inactive: 0 | inactive: 0 | inactive: 0 | inactive: 0 | inactive: 0 | inactive: 0 | inactive: 0 | inactive: 0 | inactive: 0 | inactive: 0 | inactive: 0 | inactive: 0 | inactive: 0 | inactive: 0 | inactive: 0 | inactive: 0 | inactive: 0 | inactive: 0
8 | Cc1cccc(-c2[nH]ncc2-c2ccc3ncccc3n2)n1 (10 µM) | inactive: 0 | inactive: 0 | inactive: 0 | inactive: 0 | inactive: 0 | inactive: 0 | inactive: 0 | inactive: 0 | inactive: 0 | inactive: 0 | inactive: 0 | inactive: 0 | inactive: 0 | inactive: 0 | inactive: 0 | inactive: 0 | inactive: 0 | inactive: 0 | inactive: 0 | inactive: 0
9 | COC(=O)[C@@]1(C)CC[C@]2(C(=O)O)CC[C@]3(C)C(=CC[C@@H]4[C@@]5(C)C[C@H](O)[C@H](O[C@@H]6OC[C@@H](O[C@@H]7O[C@H](CO)[C@@H](O)[C@H](O)[C@H]7O)[C@H](O)[C@H]6O)[C@@](C)(CO)[C@@H]5CC[C@]43C)[C@@H]2C1 [Esculentoside A] (10 µM) | inactive: 0 | inactive: 0 | inactive: 0 | inactive: 0 | inactive: 0 | inactive: 0 | inactive: 0 | inactive: 0 | inactive: 0 | inactive: 0 | inactive: 0 | inactive: 0 | inactive: 0 | inactive: 0 | inactive: 0 | inactive: 0 | inactive: 0 | inactive: 0 | inactive: 0 | inactive: 0
10 | O=S(=O)(c1cccc2cnccc12)N1CCNCC1 (10 µM) | inactive: 0 | inactive: 0 | inactive: 0 | inactive: 0 | inactive: 0 | inactive: 0 | inactive: 0 | inactive: 0 | inactive: 0 | inactive: 0 | inactive: 0 | inactive: 0 | inactive: 0 | inactive: 0 | inactive: 0 | inactive: 0 | inactive: 0 | inactive: 0 | inactive: 0 | inactive: 0
11 | CCn1nc(C2CCN(C(=O)CCO)CC2)nc1-c1cnc(N)c(-c2nnc(C(C)(C)C)o2)n1 (10 µM) | inactive: 0 | inactive: 0 | inactive: 0 | inactive: 0 | inactive: 0 | inactive: 0 | inactive: 0 | inactive: 0 | inactive: 0 | inactive: 0 | inactive: 0 | inactive: 0 | inactive: 0 | inactive: 0 | inactive: 0 | inactive: 0 | inactive: 0 | inactive: 0 | inactive: 0 | inactive: 0
12 | CC1(N)CCN(c2cnc3c(-c4cccc(Cl)c4Cl)[nH]nc3n2)CC1 (2.5 µM) | inactive: 0 | inactive: 0 | inactive: 0 | inactive: 0 | inactive: 0 | inactive: 0 | inactive: 0 | inactive: 0 | inactive: 0 | inactive: 0 | inactive: 0 | inactive: 0 | inactive: 0 | inactive: 0 | inactive: 0 | inactive: 0 | inactive: 0 | inactive: 0 | inactive: 0 | inactive: 0
13 | C[C@H]1Cc2ccccc2N1C(=O)Cc1nc(N2CCOCC2)cc(=O)[nH]1 (2.5 µM) | inactive: 0 | inactive: 0 | inactive: 0 | inactive: 0 | inactive: 0 | inactive: 0 | inactive: 0 | inactive: 0 | inactive: 0 | inactive: 0 | inactive: 0 | inactive: 0 | inactive: 0 | inactive: 0 | inactive: 0 | inactive: 0 | inactive: 0 | inactive: 0 | inactive: 0 | inactive: 0
14 | O=c1[nH]ccc2cc(OC3CCNCC3)ccc12 (10 µM) | inactive: 0 | inactive: 0 | inactive: 0 | inactive: 0 | inactive: 0 | inactive: 0 | inactive: 0 | inactive: 0 | inactive: 0 | inactive: 0 | inactive: 0 | inactive: 0 | inactive: 0 | inactive: 0 | inactive: 0 | inactive: 0 | inactive: 0 | inactive: 0 | inactive: 0 | inactive: 0
15 | CCCCCCCC/C=C\CCCCCCCC(=O)NCC(=O)O [N-Oleoyl glycine] (10 µM) | inactive: 0 | inactive: 0 | inactive: 0 | active: 1 | inactive: 0 | inactive: 0 | inactive: 0 | inactive: 0 | inactive: 0 | inactive: 0 | inactive: 0 | inactive: 0 | inactive: 0 | inactive: 0 | inactive: 0 | inactive: 0 | inactive: 0 | inactive: 0 | inactive: 0 | inactive: 0
16 | CC(C)c1ccc(CC(=O)N2CCN(c3ccc(C#N)nn3)CC2)cc1 (10 µM) | inactive: 0 | inactive: 0 | inactive: 0 | inactive: 0 | inactive: 0 | inactive: 0 | inactive: 0 | inactive: 0 | inactive: 0 | inactive: 0 | inactive: 0 | inactive: 0 | inactive: 0 | inactive: 0 | inactive: 0 | inactive: 0 | inactive: 0 | inactive: 0 | inactive: 0 | inactive: 0
17 | C=CC(=O)Nc1cccc(Oc2nc(Nc3ccc(N4CCN(C)CC4)cc3)nc3ccoc23)c1 [Poseltinib] (10 µM) | inactive: 0 | inactive: 0 | inactive: 0 | inactive: 0 | inactive: 0 | inactive: 0 | inactive: 0 | inactive: 0 | inactive: 0 | inactive: 0 | inactive: 0 | inactive: 0 | inactive: 0 | inactive: 0 | inactive: 0 | inactive: 0 | inactive: 0 | inactive: 0 | inactive: 0 | inactive: 0
18 | COc1ccc(CNc2nc(N(CCO)CCO)nc3c2ncn3C(C)C)cc1 (2.5 µM) | inactive: 0 | inactive: 0 | inactive: 0 | inactive: 0 | inactive: 0 | inactive: 0 | inactive: 0 | inactive: 0 | inactive: 0 | inactive: 0 | inactive: 0 | inactive: 0 | inactive: 0 | inactive: 0 | inactive: 0 | inactive: 0 | inactive: 0 | inactive: 0 | inactive: 0 | inactive: 0

One compound at a time, as listed above. Values in the order: kinase-Nluc reporter destabilization hit call [1] | kinase-Nluc reporter destabilization hit call [2] | kinase-Nluc reporter destabilization hit call [3] | kinase-Nluc reporter destabilization hit call [4] | kinase-Nluc reporter destabilization hit call [5] | kinase-Nluc reporter destabilization hit call [6] | kinase-Nluc reporter destabilization hit call [7] | kinase-Nluc reporter destabilization hit call [8] | kinase-Nluc reporter destabilization hit call [9] | kinase-Nluc reporter destabilization hit call [10] | kinase-Nluc reporter destabilization hit call [11] | kinase-Nluc reporter destabilization hit call [12] | kinase-Nluc reporter destabilization hit call [13] | kinase-Nluc reporter destabilization hit call [14] | kinase-Nluc reporter destabilization hit call [15] | kinase-Nluc reporter destabilization hit call [16] | kinase-Nluc reporter destabilization hit call [17] | kinase-Nluc reporter destabilization hit call [18] | kinase-Nluc reporter destabilization hit call [19] | kinase-Nluc reporter destabilization hit call [20]
`Cc1cc(Nc2nc(N[C@@H](C)c3ncc(F)cn3)ncc2Cl)[nH]n1` (10 µM) is listed with inactive: 0 | inactive: 0 | inactive: 0 | inactive: 0 | inactive: 0 | inactive: 0 | inactive: 0 | inactive: 0 | inactive: 0 | inactive: 0 | inactive: 0 | inactive: 0 | inactive: 0 | inactive: 0 | inactive: 0 | inactive: 0 | inactive: 0 | inactive: 0 | inactive: 0 | inactive: 0
`CCn1nc(C2CCN(C(=O)CCO)CC2)nc1-c1cnc(N)c(-c2nnc(C(C)(C)C)o2)n1` (10 µM) is listed with inactive: 0 | inactive: 0 | inactive: 0 | inactive: 0 | inactive: 0 | inactive: 0 | inactive: 0 | inactive: 0 | inactive: 0 | inactive: 0 | inactive: 0 | inactive: 0 | inactive: 0 | inactive: 0 | inactive: 0 | inactive: 0 | inactive: 0 | inactive: 0 | inactive: 0 | inactive: 0

From the supplement of paper PMC12823440, “Inhibitors supercharge kinase turnover through native proteolytic circuits” (Nature, 2025)
